Data: paper PMC6143588, “A variant NuRD complex containing PWWP2A/B excludes MBD2/3 to regulate transcription at active genes” (Nature Communications, 2018)

How the values were obtained:
[1] = target: T1, FS2-PWWP2B (UniProt Q6NUJ5); assay: affinity purification with mass spectrometry; Streptactin agarose purification of the FS2-tagged bait from 15 mg benzonase-treated mESC nuclear extract; washes 8 x 15 min in 500 mM NaCl, 0.2% NP-40; desthiobiotin elution; LC-MS/MS (Mascot, 1% FDR)
T1 sequence: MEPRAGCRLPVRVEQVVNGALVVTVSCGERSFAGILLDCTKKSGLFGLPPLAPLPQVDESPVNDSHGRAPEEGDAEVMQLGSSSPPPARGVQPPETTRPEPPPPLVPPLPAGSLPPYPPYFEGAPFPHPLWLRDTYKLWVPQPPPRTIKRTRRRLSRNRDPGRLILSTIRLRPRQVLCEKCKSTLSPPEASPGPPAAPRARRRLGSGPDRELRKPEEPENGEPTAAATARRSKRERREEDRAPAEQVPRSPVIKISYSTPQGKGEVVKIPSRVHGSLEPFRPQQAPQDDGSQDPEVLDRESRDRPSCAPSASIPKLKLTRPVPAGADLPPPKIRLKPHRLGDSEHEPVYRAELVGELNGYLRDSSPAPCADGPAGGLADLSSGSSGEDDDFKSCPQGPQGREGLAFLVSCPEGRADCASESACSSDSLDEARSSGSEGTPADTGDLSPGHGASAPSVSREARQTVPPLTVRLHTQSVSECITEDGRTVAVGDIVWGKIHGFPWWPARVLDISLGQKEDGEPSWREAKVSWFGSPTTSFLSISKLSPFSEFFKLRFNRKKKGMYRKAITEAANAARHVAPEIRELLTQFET

[2] = target: T2, Flag-2xStrepII (FS2) tagged full-length PWWP2A, Q96N64; assay: as above; conditions: remark: other sources report otherwise
T2 chain: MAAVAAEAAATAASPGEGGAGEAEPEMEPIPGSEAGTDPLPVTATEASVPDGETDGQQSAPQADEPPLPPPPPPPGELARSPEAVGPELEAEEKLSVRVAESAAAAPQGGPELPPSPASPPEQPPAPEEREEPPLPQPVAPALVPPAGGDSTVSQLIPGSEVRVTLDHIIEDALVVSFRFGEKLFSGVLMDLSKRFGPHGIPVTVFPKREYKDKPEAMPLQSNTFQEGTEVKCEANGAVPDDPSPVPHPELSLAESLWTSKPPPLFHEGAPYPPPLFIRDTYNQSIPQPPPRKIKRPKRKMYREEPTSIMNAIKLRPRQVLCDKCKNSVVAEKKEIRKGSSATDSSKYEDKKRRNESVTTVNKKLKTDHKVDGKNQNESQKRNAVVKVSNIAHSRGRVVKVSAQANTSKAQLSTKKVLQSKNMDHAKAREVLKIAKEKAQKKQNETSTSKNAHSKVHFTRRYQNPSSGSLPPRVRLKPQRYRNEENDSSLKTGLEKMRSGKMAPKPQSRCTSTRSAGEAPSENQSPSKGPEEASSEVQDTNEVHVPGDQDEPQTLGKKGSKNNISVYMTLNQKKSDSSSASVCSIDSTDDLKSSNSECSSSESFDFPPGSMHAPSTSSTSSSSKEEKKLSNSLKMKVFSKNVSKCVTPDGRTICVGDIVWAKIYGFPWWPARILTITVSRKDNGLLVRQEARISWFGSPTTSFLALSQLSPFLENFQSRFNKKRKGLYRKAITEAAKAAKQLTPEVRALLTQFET

| Binder | binding [1] | binding [2] |
| --- | --- | --- |
| PWWP2A co-purified with PWWP2B (protein, UniProt Q69Z61 1-730) MAAVAAEAAATAASPGEGGAGEAEPELEPIPGSEAGTPLPVTATEAAVPDGEADGRQSAPQADEQPLPPPPPPPPPGELADSSEAEEAKPPEPAAVPVSPPEQPPAAPEQPEDAPRPPPAPALVPPAGGDSAVSHLIPGSEVRVTLDHIIEDALVVSFRLGEKLFSGVLMDLSKRFGPHGIPVTVFPKREYKDKPDAMQLQSTTFQEGIEVKQEVNGAVPDDLSPVPPPERLWASKPPPLFHEGAPYPPPLFIRDTYNQSIPQPPPRKIKRPKRKMYREEPTSIMNAIKLRPRQVLCDKCKNSVVAEKKEIRKGSSDSSRYEDKKRRNDSVATVNKKLKTDHKVDGKNQNESQRRNTVVRVSSIAHSRGRVVKVSAQANTSKAQLNTKKVLQSKNMDHAKAREVLKIAKEKAQKKQSETSTSKTAHAKVHFTRRYQSPSSGSLPPRVRLKPQRYRNEENDSSLKTGLEKIRSGKLAPKPQSRCTSTRSAGEAPSEKPSPSEGPEESAGEVQDTSRVRVPGEQEELRMLGKKGSKSSISVYLTLNQETSDSSSASVCSIDSMDDLKSSNSECSSSESFVFPPGCMHAPSASSTSTSFSSKEENSLRNSLKMKIFSKNVSKCITPDGRTICVGDIVWAKIYGFPWWPARILTITVSRKDNGLLARQEARISWFASPTTSSLALSQLSPFLENFQLRFNKKRKGLYRRAITEAAKAAKQLTPEVRALLTQFET | binds | – |
| MTA2, endogenous in mESCs, Q9R190 1-668 (protein) MAANMYRVGDYVYFENSSSNPYLVRRIEELNKTANGNVEAKVVCLFRRRDISSSLNSLADSNAREFEEESKQPGVSEQQRHQLKHRELFLSRQFESLPATHIRGKCSVTLLNETDILNQYLDKEDCFFYSLVFDPVQKTLLADQGEIRVGCKFQAEIPDRLAEGESDNRNQQKMEMKVWDPDNPLTDRQIDQFLVVARAVGTFARALDCSSSIRQPSLHMSAAAASRDITLFHAMDTLQRNGYDLAKAMSTLVPQGGPVLCRDEMEEWSASEAMLFEEALEKYGKDFNDIRQDFLPWKSLASIVQFYYMWKTTDRYIQQKRLKAAEADSKLKQVYIPTYTKPNPNQIISVGSKPGMNGAGFQKGLTCESCHTTQSAQWYAWGPPNMQCRLCASCWIYWKKYGGLKTPTQLEGAARGTTEPHSRGHLSRPEAQSLSPYTTSANRAKLLAKNRQTFLLQTTKLTRLARRMCRDLLQPRRAARRPYAPINANAIKAECSIRLPKAAKTPLKIHPLVRLPLATIVKDLVAQAPLKPKTPRGTKTPINRNQLTQNRGLGGIMVKRSYETMAGAGVPFSANGRPLASGIRSSSQPAAKRQKLNPADAPNPVVFVATKDTRALRKALTHLEMRRAARRPNLPLKVKPTLMTVRPPVPLPASSHPASTNEPIVLED | – | binds |

No constants are given. Whether binding was seen depends on the method and setting. In cells and extracts the contact can be indirect. Here binding means that the protein was enriched with, or labelled near, the bait; the list need not be complete. For some assays here: Tags and fused reporters may be left off the sequences shown.
